Source: article PMC11645656, “MRGPRX4 mediates phospho-drug associated pruritus in a humanized mouse model” (Science translational medicine, 2024)
Several values for one entry are separate records, joined by “and”; a condition that tells them apart may be missing. Identical values can stand only once. The source gives many values for each of these; only a part stands here.

Test system: MRGPRX4-expressing HEK293 cells (Gαq signaling pathway)
Test: Pharmacological blocker experiments: phospho-drug evoked calcium response in MRGPRX4-expressing HEK293 cells after inhibitor preincubation; note: test concentration or dose not given here
Conditions: + YM254890

## O=C1NC(c2ccccc2)(c2ccccc2)C(=O)N1COP(=O)(O)O [Fosphenytoin]
Time 3.296 s
  calcium response trace, fig. S2B: 1.009 (3×) and 1.002 and 0.9992 and 1.001 and 1.005
Time 5.8096 s
  calcium response trace, fig. S2B: 1.008 and 0.9983 and 1.01 (2×) and 1.004 and 1.0064
Time 8.3136 s
  calcium response trace, fig. S2B: 1.008 (2×) and 0.9951 and 1.007 and 1.01 and 1 and 1.009
Time 10.8264 s
  calcium response trace, fig. S2B: 1.007 and 0.9929 and 0.9975 and 1.002 and 1.016 and 1.005 and 1.012
Time 13.3408 s
  calcium response trace, fig. S2B: 0.9992 and 0.9966 and 1.008 (2×) and 1.011 and 1.002 and 1.009
Time 15.8536 s
  calcium response trace, fig. S2B: 1.006 (2×) and 0.9979 and 0.9997 and 1.015 and 1.01 and 1.0003
Time 18.3672 s
  calcium response trace, fig. S2B: 1.01 and 0.9906 and 1.001 and 1 and 0.9989 and 1.017 and 1.015
Time 20.8808 s
  calcium response trace, fig. S2B: 1.013 and 1.021 and 1.003 and 1.016 and 1.018 and 1.029
Time 23.3848 s
  calcium response trace, fig. S2B: 1.02 and 1.017 (2×) and 1.022 and 1.019 and 1.032
Time 25.8984 s
  calcium response trace, fig. S2B: 1.022 and 1.032 and 1.016 (2×) and 1.027 and 1.044
Time 28.392 s
  calcium response trace, fig. S2B: 1.034 and 1.029 and 1.012 and 1.021 and 1.025 and 1.043
Time 30.8952 s
  calcium response trace, fig. S2B: 1.031 (2×) and 1.026 and 1.0299 and 1.027 and 1.044
Time 33.3896 s
  calcium response trace, fig. S2B: 1.034 and 1.029 and 1.021 and 1.024 and 1.038 and 1.047
Time 35.8728 s
  calcium response trace, fig. S2B: 1.046 and 1.033 and 1.024 and 1.026 and 1.0339 and 1.047
Time 38.3656 s
  calcium response trace, fig. S2B: 1.044 and 1.033 and 1.025 and 1.027 and 1.036 and 1.051
Time 40.86 s
  calcium response trace, fig. S2B: 1.043 and 1.039 and 1.02 and 1.023 and 1.04 and 1.051
Time 43.3632 s
  calcium response trace, fig. S2B: 1.051 and 1.026 and 1.021 and 1.023 and 1.033 and 1.043
Time 45.8664 s
  calcium response trace, fig. S2B: 1.048 and 1.021 and 1.028 and 1.024 and 1.029 and 1.054
Time 48.38 s
  calcium response trace, fig. S2B: 1.041 and 1.021 and 1.027 and 1.023 and 1.035 and 1.052
Time 50.8936 s
  calcium response trace, fig. S2B: 1.039 and 1.031 and 1.0228 and 1.019 and 1.0393 and 1.047
Time 53.4072 s
  calcium response trace, fig. S2B: 1.04 and 1.026 and 1.028 (2×) and 1.022 and 1.046
Time 55.9112 s
  calcium response trace, fig. S2B: 1.041 and 1.028 (2×) and 1.023 and 1.033
Time 58.4248 s
  calcium response trace, fig. S2B: 1.043 and 1.028 and 1.021 and 1.025 and 1.0297 and 1.054
Time 60.9288 s
  calcium response trace, fig. S2B: 1.0378 and 1.011 and 1.019 and 1.027 and 1.032 and 1.046
Time 63.444 s
  calcium response trace, fig. S2B: 1.036 and 1.02 and 1.017 and 1.0191 and 1.033 and 1.052
Time 65.9256 s
  calcium response trace, fig. S2B: 1.028 and 1.018 and 1.022 and 1.027 and 1.033 and 1.048
Time 68.4192 s
  calcium response trace, fig. S2B: 1.039 and 1.033 and 1.021 and 1.028 and 1.017 and 1.034 and 1.041
Time 70.9024 s
  calcium response trace, fig. S2B: 1.035 and 1.0348 and 1.011 and 1.024 and 1.018 and 1.032 and 1.044
Time 73.3864 s
  calcium response trace, fig. S2B: 1.037 and 1.033 and 1.02 and 1.016 and 1.018 and 1.032 and 1.046
Time 75.8896 s
  calcium response trace, fig. S2B: 1.033 and 1.007 and 1.024 (2×) and 1.016 and 1.0515
Time 78.3936 s
  calcium response trace, fig. S2B: 1.041 (2×) and 1.026 and 1.006 and 1.025 and 1.022 and 1.04
Time 80.9064 s
  calcium response trace, fig. S2B: 1.031 and 1.026 and 1.011 and 1.015 and 1.014 and 1.032 and 1.042
Time 83.4104 s
  calcium response trace, fig. S2B: 1.034 and 1.021 and 1.012 and 1.02 and 1.013 and 1.03 and 1.037
Time 85.9136 s
  calcium response trace, fig. S2B: 1.037 (2×) and 1.026 (2×) and 1.007 and 1.02 and 1.028
Time 88.4176 s
  calcium response trace, fig. S2B: 1.026 and 1.02 and 1.014 and 1.022 and 1.015 and 1.0295 and 1.045
Time 90.9336 s
  calcium response trace, fig. S2B: 1.027 and 0.9997 and 1.024 and 1.0132 and 1.032 and 1.042
Time 93.4144 s
  calcium response trace, fig. S2B: 1.029 (2×) and 1.007 and 1.003 and 1.02 and 1.021 and 1.036
Time 95.908 s
  calcium response trace, fig. S2B: 1.025 and 1.019 and 1.008 and 1.023 and 1.016 and 1.029 and 1.03
Time 98.4016 s
  calcium response trace, fig. S2B: 1.028 and 1.017 and 1.002 and 1.014 and 1.027 and 1.037
Time 100.895 s
  calcium response trace, fig. S2B: 1.033 and 1.013 and 1.001 and 1.012 (2×) and 1.0249
Time 103.389 s
  calcium response trace, fig. S2B: 1.014 and 1.0103 and 1.008 and 1.02 and 1.021 and 1.024 and 1.04
Time 105.892 s
  calcium response trace, fig. S2B: 1.024 (2×) and 1.011 and 1.004 and 1.016 and 1.022 and 1.034
Time 108.406 s
  calcium response trace, fig. S2B: 1.026 and 1.019 and 0.9963 and 1.016 (2×) and 1.023 and 1.034
Time 110.9 s
  calcium response trace, fig. S2B: 1.022 and 1.011 and 1.006 and 1.017 and 1.0054 and 1.028 and 1.035
Time 113.413 s
  calcium response trace, fig. S2B: 1.021 and 1.014 and 0.9988 and 1.017 and 1.0213 and 1.031 and 1.022
Time 115.917 s
  calcium response trace, fig. S2B: 1.015 (2×) and 1.007 and 1.027 and 1.0142 and 1.029 and 1.032
Time 118.43 s
  calcium response trace, fig. S2B: 1.017 and 1.009 and 0.9995 and 1.025 and 1.0269 and 1.026
Time 120.934 s
  calcium response trace, fig. S2B: 1.019 and 1.006 and 1.005 and 1.026 and 1.018 and 1.024 and 1.03
Time 123.45 s
  calcium response trace, fig. S2B: 1.017 and 1.008 and 0.9997 and 1.016 and 1.015 and 1.025 and 1.023
Time 125.93 s
  calcium response trace, fig. S2B: 1.02 and 1.005 and 0.9935 and 1.021 and 1.0114 and 1.019 and 1.022
Time 128.414 s
  calcium response trace, fig. S2B: 1.023 and 1.011 (2×) and 0.9952 and 1.016 and 1.013 and 1.029
Time 130.908 s
  calcium response trace, fig. S2B: 1.0129 and 1.007 and 0.9962 and 1.016 (2×) and 1.022 and 1.018
Time 133.402 s
  calcium response trace, fig. S2B: 1.018 (2×) and 1.004 and 0.997 and 1.017 and 1.014 and 1.024
Time 135.905 s
  calcium response trace, fig. S2B: 1.018 and 1.0081 and 0.9979 and 1.022 and 1.01 and 1.026 and 1.027
Time 138.41 s
  calcium response trace, fig. S2B: 1.018 and 1.005 and 0.9995 and 1.012 and 1.011 and 1.0235
Time 140.942 s
  calcium response trace, fig. S2B: 1.018 and 1 and 0.9918 and 1.023 and 1.015 and 1.02 and 1.021
Time 143.446 s
  calcium response trace, fig. S2B: 1.024 and 0.9919 and 0.9969 and 1.012 and 1.021 and 1.013
Time 145.949 s
  calcium response trace, fig. S2B: 1.0105 and 0.9955 and 0.9869 and 1.0179 and 1.022 and 1.013
Time 148.465 s
  calcium response trace, fig. S2B: 1.017 and 1.003 and 0.9924 and 1.018 and 1.013
Time 150.996 s
  calcium response trace, fig. S2B: 1.013 and 0.999 and 0.9975 and 1.02 and 1.004 and 1.015 and 1.014
Time 153.49 s
  calcium response trace, fig. S2B: 1.014 and 0.9955 and 0.9942 and 1.019 and 1.008 and 1.021 and 1.007
Time 156.003 s
  calcium response trace, fig. S2B: 1.011 and 0.9977 and 0.9849 and 1.012 and 1.014 and 1.021 and 1.018
Time 158.497 s
  calcium response trace, fig. S2B: 1.013 (2×) and 1.001 and 0.9926 and 1.016 and 1.007 and 1.021
Time 161 s
  calcium response trace, fig. S2B: 1.017 and 0.9982 and 0.9916 and 1.0112 and 1.007 and 1.016 and 1.014
Time 163.494 s
  calcium response trace, fig. S2B: 1.016 (2×) and 1.002 and 0.9923 and 1.007 and 1.006 and 1.015
Time 165.987 s
  calcium response trace, fig. S2B: 1.019 and 1.001 and 1 and 1.016 and 1.011 and 1.0092 and 1.017
Time 168.481 s
  calcium response trace, fig. S2B: 1.011 and 0.9958 and 0.9977 and 1.01 (2×) and 1.017 and 1.015
Time 170.974 s
  calcium response trace, fig. S2B: 1.01 and 0.9922 and 0.989 and 1.005 and 1.021 and 1.014
Time 173.488 s
  calcium response trace, fig. S2B: 1.011 and 0.9995 and 0.9904 and 1.006 and 1.013 and 1.022 and 1.018
Time 175.991 s
  calcium response trace, fig. S2B: 1.013 and 0.9925 and 0.9931 and 1.004 and 1.01 and 1.02 and 1.008
Time 178.505 s
  calcium response trace, fig. S2B: 1.004 and 0.9917 and 0.9911 and 1.011 and 1.02 and 1.012 (2×)
Time 181.018 s
  calcium response trace, fig. S2B: 1.009 (2×) and 0.9994 and 0.991 and 1.01 and 1.024 and 1.007
Time 183.532 s
  calcium response trace, fig. S2B: 1.013 (2×) and 0.9962 and 0.9954 and 1.006 and 1.016 and 1.002
Time 186.036 s
  calcium response trace, fig. S2B: 1.019 and 1.003 (3×) and 0.9973 and 1.018 and 1.013
Time 188.549 s
  calcium response trace, fig. S2B: 1.007 and 0.9911 and 0.9942 and 1.015 and 1.0145 and 1.0075
Time 191.053 s
  calcium response trace, fig. S2B: 1.01 and 0.9867 and 0.9983 and 1.009 and 1.011 (2×) and 1.006
Time 193.556 s
  calcium response trace, fig. S2B: 1.015 and 0.9909 and 0.9953 and 1.006 and 1.007 and 1.021 and 1.009
Time 196.05 s
  calcium response trace, fig. S2B: 1.0074 and 0.997 and 0.9992 and 1.016 and 1.014 (2×) and 1.005
Time 198.533 s
  calcium response trace, fig. S2B: 1.015 and 0.9912 and 0.9942 and 1.009 and 1.007 and 1.02 and 1.005
